Laboratory results as given in PubChem BioAssay AID292 (DTP/NCI, 2004).
The list is a part of this screen's results and no random one: it gathers tests that were run many times, whatever their T/C, doses with no T/C, and many T/C values between a quarter and a half above the control. Other doses and runs of a compound stand elsewhere. T/C is the treated group as % of the vehicle group. Some doses have a count of surviving animals in place of a T/C: the source holds a T/C of zero for them, seemingly a mark for toxic or unscored doses. Some doses without a T/C left all or most animals alive at the check, yet need not have been tolerated: the source hardly ever lists a survival T/C far under the control, and the zero likely stands for such cases as well. Counts of survivors are from the toxicity check (mostly the fifth day) where no day follows; animals may have died later. Schedules are NCI's codes, read here as Q, the interval in days (D) or hours (H), X, the number of doses. Some entries were tested several times; the values are given in rising order. For survival time, the PubChem record calls one and a half times the control and up active, and a quarter to a half above the control has no call in these data; cut-offs in other NCI protocols can differ. Marks such as (2×) say how often a value occurs here. Some T/C values carry the count of animals alive at the toxicity check (mostly the fifth day); where none is given, no animal had died by that day.

Tested on: B6C3F1 mice, ip Sarcoma M5076, median survival T/C
Experiment: NCI In Vivo Anticancer Drug Screen. Data for tumor model Sarcoma M5076 (intraperitoneal) in B6C3F1 mice
Details: T/C endpoint: median survival time, higher T/C = longer survival
In short: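 Survival measured in treated (T) and vehicle control (C) mice with transplantable tumour; result given as T divided by C.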

[1] = dose: 25.0 mg/kg/injection, schedule: Q04DX004 (ip), vehicle: Klucel (hydroxypropylcellulose) (HPC)
[2] = dose: 100.0 mg/kg/injection, schedule: Q04DX004 (ip), vehicle: Klucel (hydroxypropylcellulose) (HPC)
[3] = dose: 200.0 mg/kg/injection, schedule: Q04DX004 (ip), vehicle: Klucel (hydroxypropylcellulose) (HPC)
[4] = dose: 300.0 mg/kg/injection, schedule: Q04DX004 (ip), vehicle: saline with Tween-80
[5] = dose: 600.0 mg/kg/injection, schedule: Q04DX004 (ip), vehicle: saline with Tween-80
[6] = dose: 400.0 mg/kg/injection, schedule: Q04DX004 (ip), vehicle: Klucel (hydroxypropylcellulose) (HPC)
[7] = dose: 800.0 mg/kg/injection, schedule: Q04DX004 (ip), vehicle: Klucel (hydroxypropylcellulose) (HPC)
[8] = dose: 400.0 mg/kg/injection, schedule: Q04DX004 (ip), vehicle: saline with Tween-80
[9] = dose: 800.0 mg/kg/injection, schedule: Q04DX004 (ip), vehicle: saline with Tween-80
[10] = dose: 200.0 mg/kg/injection, schedule: Q04DX004 (ip), vehicle: saline with Tween-80

In the case of `O=C1c2ccccc2C(=O)c2c1cn1c2Cc2ccccc2C1`, the survivor count [1] was 8 of 10 on day 14, the survivor count [2] was 8 of 10 on day 14 and the survivor count (dose: 100.0 mg/kg/injection, schedule: Q04DX004 (ip), vehicle: other) was 4 of 10 on day 14. For the same compound, the survivor count (dose: 150.0 mg/kg/injection, schedule: Q04DX004 (ip), vehicle: other) was 5 of 10 on day 14, the survivor count [3] was 10 of 10 on day 14 and the survivor count (dose: 200.0 mg/kg/injection, schedule: Q04DX004 (ip), vehicle: other) was 4 of 10 on day 14.

With `CN(C)CCCN=c1c2ccccc2n(C)c2[nH]c(=O)n(C)c(=O)c12` the survivor count (dose: 60.0 mg/kg/injection, schedule: Q04DX004 (ip), vehicle: saline) was 2 of 10 on day 14 and the survivor count (dose: 120.0 mg/kg/injection, schedule: Q04DX004 (ip), vehicle: saline) was 0 of 10 on day 14.

In the case of `Nc1nc2c(ncn2C2CC3[O][Sn]([c]4ccccc4)([c]4ccccc4)[O]CC3O2)c(=O)[nH]1` (stereo unspecified), the survivor count (dose: 400.0 mg/kg/injection, schedule: Q04DX004 (ip), vehicle: distilled water + Tween-80) was 2 of 10 on day 14.

For `O=NNc1ccc2cccnc2n1`, the T/C (dose: 25.0 mg/kg/injection, schedule: Q04DX004 (ip), vehicle: water) was 135 % of control, the T/C (dose: 50.0 mg/kg/injection, schedule: Q04DX004 (ip), vehicle: water) was 132 % of control and the survivor count (dose: 200.0 mg/kg/injection, schedule: Q04DX004 (ip), vehicle: water) was 3 of 10 on day 14. For the same compound, the survivor count (dose: 400.0 mg/kg/injection, schedule: Q04DX004 (ip), vehicle: water) was 0 of 10 on day 14.

In the case of `O=C(CSc1nnc(-c2ccc(Cl)cc2)s1)Nc1nccs1`, the survivor count (dose: 75.0 mg/kg/injection, schedule: Q04DX004 (ip), vehicle: saline with Tween-80) was 10 of 10 on day 14, the survivor count (dose: 150.0 mg/kg/injection, schedule: Q04DX004 (ip), vehicle: saline with Tween-80) was 10 of 10 on day 14 and the survivor count [4] was 10 of 10 on day 14. For the same compound, the survivor count [5] was 8 of 10 on day 14.

`Cc1cc(C(F)(F)F)nc2nc3ccccc3n12` was tested, and the survivor count (dose: 600.0 mg/kg/injection, schedule: Q04DX004 (ip), vehicle: Klucel (hydroxypropylcellulose) (HPC)) was 9 of 10 on day 14.

For `Cc1c(-c2ccc(C3CCCCC3)cc2)nc2ccc(F)cc2c1C(=O)O`, the T/C [3] was 135 % of control (2×), the T/C [6] was 127 and 135 % of control and the T/C [7] was 130 % of control [8 of 10 alive on day 14].

`O=C1NC2(CCCCC2)C(=O)N1CCN(CCCl)CCCl` was tested, and the T/C (dose: 1.5 mg/kg/injection, schedule: Q01DX009 (ip), vehicle: saline with Tween-80) was 127 % of control [9 of 10 alive on day 14], the T/C (dose: 3.0 mg/kg/injection, schedule: Q01DX009 (ip), vehicle: saline with Tween-80) was 131 and 136 % of control and the T/C (dose: 4.3 mg/kg/injection, schedule: Q01DX009 (ip), vehicle: saline with Tween-80) was 142 % of control. The T/C (dose: 6.0 mg/kg/injection, schedule: Q01DX009 (ip), vehicle: saline with Tween-80) was 149 [8 of 9 alive on day 14] and 149 % of control [9 of 10 alive on day 14], the survivor count (dose: 12.0 mg/kg/injection, schedule: Q01DX009 (ip), vehicle: saline with Tween-80) was 4 of 10 on day 14 and the survivor count (dose: 24.0 mg/kg/injection, schedule: Q01DX009 (ip), vehicle: saline with Tween-80) was 0 of 10 on day 14. The survivor count (dose: 33.33 mg/kg/injection, schedule: Q01DX009 (ip), vehicle: saline with Tween-80) was 3 of 10 on day 14.

With `O=C1CC2(C(=O)N1CN1CCOCC1)c1ccccc1-c1ccccc12` the survivor count [7] was 0 of 10 on day 14 and the survivor count (dose: 1600.0 mg/kg/injection, schedule: Q04DX004 (ip), vehicle: Klucel (hydroxypropylcellulose) (HPC)) was 0 of 10 on day 14.

For `N#CC1C(=O)NC(=O)C(C#N)C1C(Cl)(Cl)Cl` (stereo unspecified), the survivor count [3] was 10 of 10 on day 14, the survivor count [6] was 10 of 10 on day 14 and the survivor count [7] was 1 of 10 on day 14.

In the case of `Cc1ccc(/C=C2/N=C([Se])N(C)C2=O)cc1`, the survivor count [4] was 8 of 10 on day 14 and the survivor count [5] was 2 of 10 on day 14.

With `CN(C)N=Nc1ccc(C(=O)O)cc1` the survivor count (dose: 400.0 mg/kg/injection, schedule: Q04DX004 (ip), vehicle: saline) was 0 of 10 on day 14 and 4 of 10 on day 14 and the survivor count (dose: 800.0 mg/kg/injection, schedule: Q04DX004 (ip), vehicle: saline) was 0 of 10 on day 14.

With `CCC1OCC(C(Cl)CCl)O1` (stereo unspecified) the survivor count [8] was 10 of 10 on day 14 and the survivor count [9] was 2 of 10 on day 14.

`COC1OC(COC(C)=O)C(OC(C)=O)C(OC(C)=O)[CH]1[Hg][O]C(C)=O` (stereo unspecified) was tested, and the survivor count [1] was 3 of 10 on day 14, the survivor count (dose: 50.0 mg/kg/injection, schedule: Q04DX004 (ip), vehicle: Klucel (hydroxypropylcellulose) (HPC)) was 0 of 10 on day 14 and the survivor count [2] was 0 of 10 on day 14.

With `CCN1CCC(=C(c2ccccc2)c2ccccc2)C1` the survivor count (dose: 75.0 mg/kg/injection, schedule: Q04DX004 (ip), vehicle: Klucel (hydroxypropylcellulose) (HPC)) was 6 of 10 on day 14, the survivor count (dose: 150.0 mg/kg/injection, schedule: Q04DX004 (ip), vehicle: Klucel (hydroxypropylcellulose) (HPC)) was 0 of 10 on day 14 and the survivor count (dose: 300.0 mg/kg/injection, schedule: Q04DX004 (ip), vehicle: Klucel (hydroxypropylcellulose) (HPC)) was 0 of 10 on day 14.

`O=C1N(Cl)C(=O)C(c2ccc(Cl)cc2)(c2ccc(Cl)cc2)N1Cl` was tested, and the survivor count [10] was 10 of 10 on day 14 and the survivor count [8] was 10 of 10 on day 14.

With `Cc1ccc(Nc2nnc(CSc3ccc(Cl)cc3)s2)c(S(=O)(=O)O)c1` the survivor count [4] was 4 of 10 on day 14 and the survivor count [5] was 0 of 10 on day 14.

With `O=c1[nH]c(=O)n(C2CC(O)C(CO)O2)cc1C(F)(F)F` (stereo unspecified) the T/C [9] was 125 % of control and the T/C (dose: 1600.0 mg/kg/injection, schedule: Q04DX004 (ip), vehicle: saline with Tween-80) was 133 % of control.

With `Cc1ccccc1C1C(C#N)C(=O)NC(=O)C1C#N` (stereo unspecified) the survivor count [7] was 0 of 10 on day 14.

`c1ccc2c(c1)[nH]c1c2c(N2CCOCC2)nn2cnnc12` was tested, and the survivor count (dose: 50.0 mg/kg/injection, schedule: Q04DX004 (ip), vehicle: saline with Tween-80) was 10 of 10 on day 14, the survivor count (dose: 100.0 mg/kg/injection, schedule: Q04DX004 (ip), vehicle: saline with Tween-80) was 8 of 10 on day 14 and the survivor count [10] was 9 of 10 on day 14. For the same compound, the survivor count [8] was 8 of 10 on day 14.
